Series [1] concerns the target Nkx-2.5 (Rattus norvegicus (neonatal rat cardiomyocytes)) (UniProt O35767). Kind of series: EMSA, supershift. To be noted: binding activity increased by ATF3 overexpression; EMSA binding buffer, pH and temperature not given; nuclear extract in 20 mM HEPES, 0.4 M NaCl, 1 mM EDTA, 1 mM EGTA, DTT; protein in an extract; label: 32P (alpha-32P-dCTP).
Series [2] deals with T1, ATF3 (adenoviral overexpression, NRCM nuclear extract) (UniProt P29596).
T1 sequence (looked up): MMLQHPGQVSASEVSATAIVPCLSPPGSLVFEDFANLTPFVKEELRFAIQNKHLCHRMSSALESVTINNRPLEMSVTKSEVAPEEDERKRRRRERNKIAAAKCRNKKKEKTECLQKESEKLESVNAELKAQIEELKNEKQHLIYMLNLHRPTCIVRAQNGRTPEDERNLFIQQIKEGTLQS
In words: EMSA. To be noted: ATF3 adenovirus 4 MOI, 24 h, P<0.001, reflects amount of active protein; EMSA binding buffer, pH and temperature not given; nuclear extract in 20 mM HEPES, 0.4 M NaCl, 1 mM EDTA, 1 mM EGTA, DTT; protein in an extract; residues 1-181; label: 32P (alpha-32P-dCTP), unlabeled as competitor.

The chains behind the UniProt entries cited, without tags or fusion partners.
UniProt O35767, whole entry: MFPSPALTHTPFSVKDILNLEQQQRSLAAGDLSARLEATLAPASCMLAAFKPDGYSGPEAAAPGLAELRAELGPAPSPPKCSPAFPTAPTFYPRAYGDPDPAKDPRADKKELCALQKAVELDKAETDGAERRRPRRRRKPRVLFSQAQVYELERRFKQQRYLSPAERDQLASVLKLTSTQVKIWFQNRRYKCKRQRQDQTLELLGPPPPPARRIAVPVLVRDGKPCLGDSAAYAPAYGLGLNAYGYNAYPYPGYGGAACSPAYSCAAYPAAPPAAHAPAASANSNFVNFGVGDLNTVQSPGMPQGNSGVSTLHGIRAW

The target of series [3] is T2, ATF3 (endogenous, NRCM nuclear extract) (Rattus norvegicus (neonatal rat cardiomyocytes)) (UniProt P29596).
T2 sequence (looked up, limits assumed): T1 sequence (looked up)
Kind of series: EMSA. To be noted: ET-1 100 nM, 1 h, reflects amount of active protein; EMSA binding buffer, pH and temperature not given; nuclear extract in 20 mM HEPES, 0.4 M NaCl, 1 mM EDTA, 1 mM EGTA, DTT; protein in an extract; label: 32P (alpha-32P-dCTP), unlabeled as competitor.

In series [4] the target is T2, ATF3 (endogenous, NRCM nuclear extract) (Rattus norvegicus (neonatal rat cardiomyocytes)). In words: EMSA, supershift. To be noted: p38alpha+MKK3b overexpression, increased binding activity, lesser with p38beta+MKK6b; EMSA binding buffer, pH and temperature not given; nuclear extract in 20 mM HEPES, 0.4 M NaCl, 1 mM EDTA, 1 mM EGTA, DTT; protein in an extract; label: 32P (alpha-32P-dCTP), unlabeled as competitor.

Series [5] shares this target. Kind of series: EMSA, supershift, self competition. To be noted: 1-, 10-, 100-fold molar excess self competitor, dose-dependent inhibition; EMSA binding buffer, pH and temperature not given; nuclear extract in 20 mM HEPES, 0.4 M NaCl, 1 mM EDTA, 1 mM EGTA, DTT; protein in an extract; label: 32P (alpha-32P-dCTP), unlabeled as competitor.

For at least one entry, the source does not settle the construct or the ends of the probe. Results from cells or extracts need not show a direct contact. For some assays here: Tags and fusion partners may be left off the protein sequences shown. For some assays here: The direction of at least one scale is not stated here.

For the sequence “AGAGACCTTTGAAGTGGGGGCCTCTTGAGGCCCCG (double strand) [Nkx-2.5 probe]”, in series [1], the binding result is reported as “binds”.
As to “CTCGATGCCATGACATCATCTTTA (double strand) [ATF3 probe]”, the binding signal (% increase vs LacZ extract) in series [2] was determined as 35.6. In series [3], this sequence returned a binding signal (% increase vs untreated extract) of 31.8. Further, the binding result in series [4] and in series [5] was “binds” each time.

The values are drawn from paper PMC4138181.
